The other results are listed elsewhere or left out.
Biological target: T1, OsSMF1 (Oryza sativa, UniProt Q6ZLB0 1-436)
T1 sequence: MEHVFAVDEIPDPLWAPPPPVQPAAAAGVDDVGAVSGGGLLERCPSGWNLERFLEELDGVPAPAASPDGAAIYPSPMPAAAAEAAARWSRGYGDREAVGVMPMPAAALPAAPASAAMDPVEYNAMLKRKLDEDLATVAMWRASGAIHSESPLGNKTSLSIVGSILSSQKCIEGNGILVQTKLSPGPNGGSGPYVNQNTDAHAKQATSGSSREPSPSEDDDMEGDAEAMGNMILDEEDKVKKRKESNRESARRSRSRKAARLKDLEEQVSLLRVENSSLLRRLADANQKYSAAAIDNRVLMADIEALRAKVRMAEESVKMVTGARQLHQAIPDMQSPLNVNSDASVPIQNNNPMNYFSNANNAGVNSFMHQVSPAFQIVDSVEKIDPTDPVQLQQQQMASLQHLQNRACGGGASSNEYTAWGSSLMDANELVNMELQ
Assay: protein-binding microarray (RPBM); PBS, 2% BSA, 51.3 ng/ul salmon testes DNA, 50 uM zinc acetate, 200 nM TF, 25 C, 1 h; high values mean tight binding
Conditions: protein: recombinant; tags: N-terminal polyhistidine and DsRed monomer fusion (pET32a); chain copies: 2; label: CyDye5-dUTP incorporated in the synthesized complementary strand; 3' TTTTT single-stranded linker to array surface; dsDNA, one strand shown
Procedure, shortened: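 Binding signal here means per-feature fluorescence intensity in arbitrary units. The values were read on an Axon 4000B scanner after a custom Agilent array, double-stranded by primer extension with Cy5-dUTP, was incubated with 200 nM protein at 25 °C for 1 h in PBS with 2% BSA, salmon testes DNA and 50 µM zinc acetate, then washed. The proteins were transcription factors with an N-terminal polyhistidine tag and DsRed, expressed in E. coli BL21-CodonPlus and purified on Ni–NTA.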

| Sequence | binding signal |
| --- | --- |
| CGGCTAGATCTACGCCGGCGAAATCGCCGTGGCGGCGAAACGGAGTCACCTAGTGCAG | 3580 fluorescence intensity (a.u.) |
| TCGAATCGGGAAACCTAACGGCGAGCGGCGCCTCCACCTCCGGAGTCACCTAGTGCAG | 31300 fluorescence intensity (a.u.) |
| GCCGCTCCCTGCCTCCGCGTGTCGTCGTCGCCCAGCTGCACGGAGTCACCTAGTGCAG | 4240 fluorescence intensity (a.u.) |
| AGATTTGTGCTCTGACCCACTTCACTCACTTAGTCTCTAGCGGAGTCACCTAGTGCAG | 3630 fluorescence intensity (a.u.) |
| CACCTGCTGCTTGAGGTCGTGACGCGCGCGCGTCAGATAGCGGAGTCACCTAGTGCAG | 3380 fluorescence intensity (a.u.) |
| AACGTGGAACGGTGGAAGCAATCGGCGGACGCCACGGTGGCGGAGTCACCTAGTGCAG | 3910 fluorescence intensity (a.u.) |
| AGCCTGCCCAATCCCAGTTCGTCGTCATCTTCAGAGCGAGCGGAGTCACCTAGTGCAG | 3580 fluorescence intensity (a.u.) |
| GGCCGTCTCGTCCTCTCTCCACATCATCCCCGTTCCCTCGCGGAGTCACCTAGTGCAG | 6650 fluorescence intensity (a.u.) |
| CACCTACGCAGGTGAGGTGTCCCGCCACGTCACCTGCCGCCGGAGTCACCTAGTGCAG | 34300 fluorescence intensity (a.u.) |
| TTCCTCCCCACGCCACGCCACCGAGGAGTAGCCACTCGCCCGGAGTCACCTAGTGCAG | 4860 fluorescence intensity (a.u.) |
| GCATATAACTTTCACGAGACAAACGTGAAATATCCGTATCCGGAGTCACCTAGTGCAG | 4390 fluorescence intensity (a.u.) |
| GGGAGAGGAGGGGAGAGGGTGGTGACGTGGCCAGCTGACACGGAGTCACCTAGTGCAG | 15700 fluorescence intensity (a.u.) |
| ATCTGAGTCAGAATGGGCCTAATGGAGAGATGGGCTGTACCGGAGTCACCTAGTGCAG | 3140 fluorescence intensity (a.u.) |
| AGTGATTAATTACACTGAGCTGGAAGCTAGCCTTGACCTGCGGAGTCACCTAGTGCAG | 3200 fluorescence intensity (a.u.) |
| CATAATTTTAGGTATCGCTAGGATTTAATTTACACTGTAGCGGAGTCACCTAGTGCAG | 3370 fluorescence intensity (a.u.) |
| TTGCACACTCTGCTTAGAGGGTGCCGTGGCGTTCCTCCACCGGAGTCACCTAGTGCAG | 4350 fluorescence intensity (a.u.) |
| ATTTTCCACGTCATCATGGTGCGGGAGACACGTGTCCACACGGAGTCACCTAGTGCAG | 24000 fluorescence intensity (a.u.) |
| TAGTAATAATAGATCTCAGGCAAGAGTACTACAGCTGATTCGGAGTCACCTAGTGCAG | 27100 fluorescence intensity (a.u.) |
| TATTGCCTACTGGTGTTCGAATGAGTAGGATGGGATGTGCCGGAGTCACCTAGTGCAG | 3500 fluorescence intensity (a.u.) |
| ATGTAATTATCATTTATTTTATTATGACTTGATTCGTCATCGGAGTCACCTAGTGCAG | 4250 fluorescence intensity (a.u.) |
| GACGGCACGTAGGGTGGGGTGGGTCTGTGCTGATGCATGTCGGAGTCACCTAGTGCAG | 5050 fluorescence intensity (a.u.) |

Individual results from the results shown.
Under binding signal, CATAATTTTAGGTATCGCTAGGATTTAATTTACACTGTAGCGGAGTCACCTAGTGCAG has 3370 fluorescence intensity (a.u.)
Under binding signal, GCCGCTCCCTGCCTCCGCGTGTCGTCGTCGCCCAGCTGCACGGAGTCACCTAGTGCAG has 4240 fluorescence intensity (a.u.)

Remaining list, next part.

| Sequence | binding signal |
| --- | --- |
| CTGATCTTCCTTAACCAATACACACACATCGACACGCTGTCGGAGTCACCTAGTGCAG | 3710 fluorescence intensity (a.u.) |
| AGCAGTGGCATTGCAAATCTGTCACCGAAGCTGTCAATAGCGGAGTCACCTAGTGCAG | 3920 fluorescence intensity (a.u.) |
| TCCTAGTTAGAGATAGTGACTTGGATAATCAATCCAGCGTCGGAGTCACCTAGTGCAG | 4860 fluorescence intensity (a.u.) |
| GGTGAAACTTGCTTTGCGTTTTCCCCATAAATAGCAACATCGGAGTCACCTAGTGCAG | 3350 fluorescence intensity (a.u.) |
| ATCGCGGGCACCGTGTTCTGACTCTGAGCTAGGGTTTCCTCGGAGTCACCTAGTGCAG | 3640 fluorescence intensity (a.u.) |
| ATTTGTCAGCACACCACGTATGCATGCCCTGCTTTATCTTCGGAGTCACCTAGTGCAG | 9630 fluorescence intensity (a.u.) |
| TCCATGCCGCTAAGTCGATGATGACTAGATAGGTTATCAGCGGAGTCACCTAGTGCAG | 3760 fluorescence intensity (a.u.) |
| TCAGCGCCGCAAGCTCCGGAATGACGGGGTGGTCTCTCGCCGGAGTCACCTAGTGCAG | 3450 fluorescence intensity (a.u.) |
| ATTTCTGGAATGGGAACTTACCACTTTGTTTCGTGTGAATCGGAGTCACCTAGTGCAG | 3380 fluorescence intensity (a.u.) |
| GGTCCCACATGTCATCATCTCTTATCCCTTCTTCCTCCTCCGGAGTCACCTAGTGCAG | 4560 fluorescence intensity (a.u.) |
| TTACCGCTGCCGCCACGGTGCCAACTGCCACGCCAACGCGCGGAGTCACCTAGTGCAG | 3790 fluorescence intensity (a.u.) |
| TTCTACAACTTGGACCATAAAACGTGTAGTTTTGTGAAATCGGAGTCACCTAGTGCAG | 3570 fluorescence intensity (a.u.) |
| GCACGGTTTCTAAATCTGAAATTCAGAATTGCAGGCGCTGCGGAGTCACCTAGTGCAG | 4070 fluorescence intensity (a.u.) |
| CTTCTTGTTGTTGAGTGATGACCACGATATCGAATCGTACCGGAGTCACCTAGTGCAG | 3860 fluorescence intensity (a.u.) |
| GGGATGTCAAGTTTTCACACGGAGAGGAATGAAATTCGCGCGGAGTCACCTAGTGCAG | 14000 fluorescence intensity (a.u.) |
| GGTGGGTGTTTTAATGTGACATGATATTTGTGGTTGGGTTCGGAGTCACCTAGTGCAG | 3790 fluorescence intensity (a.u.) |
| CTCCGGTTGGCAGCGCCCGCGGCCACCGCCACTAACTACGCGGAGTCACCTAGTGCAG | 21700 fluorescence intensity (a.u.) |
| AATATTGACGTACCATATAAATATAGGCTAACCCTTTATACGGAGTCACCTAGTGCAG | 4060 fluorescence intensity (a.u.) |
| TCCTTCCTCCTGCGTTTGCGTGACGAGGAACGAAAGCATCCGGAGTCACCTAGTGCAG | 4980 fluorescence intensity (a.u.) |
| CAAAGCGGTGAACGGCGGCACATGGACACGCACGCGGTTGCGGAGTCACCTAGTGCAG | 4650 fluorescence intensity (a.u.) |
| GAAGATGACATATGTTTGCACGATGTCATGGAGGTCGCTCCGGAGTCACCTAGTGCAG | 4260 fluorescence intensity (a.u.) |
